Measurements as given in article PMC10917307.

The chains behind the UniProt entries cited, without tags or fusion partners. Where a name states a change or a piece, a line headed by the entry shows the natural chain unless it says otherwise.
UniProt P61958: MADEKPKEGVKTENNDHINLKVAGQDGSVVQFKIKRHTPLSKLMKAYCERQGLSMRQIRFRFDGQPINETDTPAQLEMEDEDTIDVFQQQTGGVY
UniProt I3LUP6: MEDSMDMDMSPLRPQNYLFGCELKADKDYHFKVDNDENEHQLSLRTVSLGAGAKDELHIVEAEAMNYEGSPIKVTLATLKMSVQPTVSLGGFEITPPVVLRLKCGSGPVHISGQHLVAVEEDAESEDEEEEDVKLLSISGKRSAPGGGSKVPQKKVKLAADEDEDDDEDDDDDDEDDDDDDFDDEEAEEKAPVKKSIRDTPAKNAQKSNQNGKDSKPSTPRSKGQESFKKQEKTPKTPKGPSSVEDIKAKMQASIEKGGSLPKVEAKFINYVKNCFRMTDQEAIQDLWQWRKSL

Target: GFP-fused porcine SUMO2 (porcine) (UniProt P61958)
Assay: co-IP; Flag-tagged pNPM1 and GFP-fused SUMO1, SUMO2 or SUMO3 transfected into PK-15^npm1-/- cells, then mock or 1 MOI PCV2 for 12 h

binding: binds
Substance: Flag-tagged wild-type porcine nucleophosmin-1 (pNPM1) (from UniProt I3LUP6)

These are yes or no findings as the source states them, for the method shown. Binding seen in cells or lysates may run through a third protein. Binding calls can cover weak binding; strength is not graded here.
